Measured values: article PMC5120601
Results are given in words; binding and its absence hold for the method and conditions named. Binding seen in cells or lysates may run through a third protein. Some entries that bind do so weakly or less than the wild type.

Sequences of proteins named here, by UniProt entry; tags and fusion partners are left off. A change or cut given only in a name is not applied to a line headed by its entry. A line that says so, or that is headed by a name, gives the form on record, which may keep a tag or linker. Residues count along the entry.
UniProt P02545: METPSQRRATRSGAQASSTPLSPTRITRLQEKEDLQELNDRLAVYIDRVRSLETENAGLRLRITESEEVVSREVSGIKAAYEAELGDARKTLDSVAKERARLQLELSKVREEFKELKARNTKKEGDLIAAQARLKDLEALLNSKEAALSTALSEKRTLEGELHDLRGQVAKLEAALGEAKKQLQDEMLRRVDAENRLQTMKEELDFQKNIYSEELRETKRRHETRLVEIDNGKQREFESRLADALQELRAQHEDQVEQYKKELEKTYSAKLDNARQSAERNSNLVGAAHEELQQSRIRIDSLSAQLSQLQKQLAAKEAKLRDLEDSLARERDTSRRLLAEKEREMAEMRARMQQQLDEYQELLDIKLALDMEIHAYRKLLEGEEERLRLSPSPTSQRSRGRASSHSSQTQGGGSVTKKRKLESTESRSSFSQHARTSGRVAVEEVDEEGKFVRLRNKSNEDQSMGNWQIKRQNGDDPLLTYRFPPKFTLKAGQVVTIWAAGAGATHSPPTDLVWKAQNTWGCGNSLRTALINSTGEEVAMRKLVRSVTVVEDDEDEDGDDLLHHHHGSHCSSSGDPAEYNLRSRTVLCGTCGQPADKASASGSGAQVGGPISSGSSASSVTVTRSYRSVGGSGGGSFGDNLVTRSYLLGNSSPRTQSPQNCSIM
GST-lamin A: residues 1-646 of P02545
lamin C (of lamins A/C) (P02545-2, form named): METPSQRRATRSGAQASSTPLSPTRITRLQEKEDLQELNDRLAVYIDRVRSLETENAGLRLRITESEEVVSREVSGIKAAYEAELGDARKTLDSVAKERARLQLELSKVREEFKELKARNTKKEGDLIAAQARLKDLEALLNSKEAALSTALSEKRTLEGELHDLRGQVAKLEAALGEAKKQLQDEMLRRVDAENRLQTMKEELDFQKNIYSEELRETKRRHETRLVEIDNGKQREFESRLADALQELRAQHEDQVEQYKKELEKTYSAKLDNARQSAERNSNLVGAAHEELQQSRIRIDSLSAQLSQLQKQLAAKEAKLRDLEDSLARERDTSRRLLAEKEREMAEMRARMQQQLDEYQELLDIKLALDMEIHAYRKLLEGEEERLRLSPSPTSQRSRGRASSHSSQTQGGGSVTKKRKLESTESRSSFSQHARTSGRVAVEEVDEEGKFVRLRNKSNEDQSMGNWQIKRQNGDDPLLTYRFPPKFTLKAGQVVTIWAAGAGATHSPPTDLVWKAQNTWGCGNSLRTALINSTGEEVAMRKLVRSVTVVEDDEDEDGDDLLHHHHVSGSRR
UniProt P12004: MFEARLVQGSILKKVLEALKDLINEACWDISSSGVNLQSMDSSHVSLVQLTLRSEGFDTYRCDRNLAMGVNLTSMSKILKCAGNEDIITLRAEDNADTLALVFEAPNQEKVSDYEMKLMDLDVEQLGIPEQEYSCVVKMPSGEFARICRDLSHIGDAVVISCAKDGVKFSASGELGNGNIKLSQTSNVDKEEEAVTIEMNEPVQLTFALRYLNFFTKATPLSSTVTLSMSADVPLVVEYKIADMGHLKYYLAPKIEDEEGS

Columns and labels:
[1] = target: GST-lamin A (UniProt P02545); assay: pull-down; GST-lamin A as bait, GST alone as control; with or without UV-induced DNA lesions; western blot; performed as previously described (ref. 42); only the target purified
[2] = target: lamin C (of lamins A/C) (human (endogenous in U2OS)) (UniProt P02545); assay: co-IP; reverse IP: U2OS extract, anti-Lamin A/C antibody and Protein G beads, 4°C; cells with or without prelamin A accumulation (less PCNA with prelamin A); western blot
[3] = target: lamin A (mature, of lamins A/C) (human (endogenous in U2OS)) (UniProt P02545); assay: as above
[4] = target: FLAG-tagged uncleavable form of prelamin A mutated within the Zmpste24 cleavage site (L647R) (UniProt P02545); assay: co-IP; U2OS cells transduced with FLAG-tagged UCLA or EGFP; lysate in IP buffer (10 mM Tris pH 7.5, 150 mM NaCl, 1 mM EDTA, 1% Triton X-100); ANTI-Flag M2 Affinity Gel, 4°C, 2 h; western blot
[5] = target: proliferating cell nuclear antigen (PCNA) (human (endogenous in U2OS)) (UniProt P12004); assay: co-IP; U2OS extract, anti-PCNA antibody and Protein G beads, 4°C; cells treated with control or Face1 siRNA (prelamin A accumulation; lamins A/C precipitated reduced by approximately 25%), with or without doxorubicin; western blot

Molecule | binding [1] | binding [2] | binding [3] | binding [4] | binding [5]
lamin A (mature, of lamins A/C) (from UniProt P02545 1-646) | – | – | – | – | binds
USP3 (protein, UniProt Q9Y6I4 1-520) MECPHLSSSVCIAPDSAKFPNGSPSSWCCSVCRSNKSPWVCLTCSSVHCGRYVNGHAKKHYEDAQVPLTNHKKSEKQDKVQHTVCMDCSSYSTYCYRCDDFVVNDTKLGLVQKVREHLQNLENSAFTADRHKKRKLLENSTLNSKLLKVNGSTTAICATGLRNLGNTCFMNAILQSLSNIEQFCCYFKELPAVELRNGKTAGRRTYHTRSQGDNNVSLVEEFRKTLCALWQGSQTAFSPESLFYVVWKIMPNFRGYQQQDAHEFMRYLLDHLHLELQGGFNGVSRSAILQENSTLSASNKCCINGASTVVTAIFGGILQNEVNCLICGTESRKFDPFLDLSLDIPSQFRSKRSKNQENGPVCSLRDCLRSFTDLEELDETELYMCHKCKKKQKSTKKFWIQKLPKVLCLHLKRFHWTAYLRNKVDTYVEFPLRGLDMKCYLLEPENSGPESCLYDLAAVVVHHGSGVGSGHYTAYATHEGRWFHFNDSTVTLTDEETVVKAKAYILFYVEHQAKAGSDKL | no binding | – | – | – | –

Other lines, results leading:

binding [1] | binding [2] | binding [3] | binding [4] | binding [5] | Molecule
binds | binds | binds | binds | – | proliferating cell nuclear antigen (PCNA) (from UniProt P12004 1-261)
– | – | – | – | binds | lamin C (of lamins A/C) (from UniProt P02545-2 1-572)
